Results published in patent US20160081990A1 (priority 2013, published 2016).
Structures can show the parent of a compound that is named as a salt. Where two headings read alike, the source gives them in different places.

Row | SMILES | dissolution in water | dissolution in water (hydrochloride)
1 | COc1cc2c(cc1OC)C(=O)C(CC1CCN(Cc3ccccc3)CC1)C2 (centres unmarked) [donepezil free base, donepezil] | not almost dissolved in water | –
2 | COc1cc2c(cc1OC)C(=O)C(CC1CCN(Cc3ccccc3)CC1)C2 (centres unmarked) [donepezil hydrochloride] | – | dissolution in water
